# Measurements taken from PubChem BioAssay (NCATS).
# Some of the results follow. Further columns of the screen follow, without active or inactive calls. The list favours compounds with an active or inconclusive main result. For some assays here: Potencies come from curve fits of mixed quality, noted in brackets.
# Tests used:
# [1] = Validation of Assay for Modulators of Lamin A Splicing (AID 1459); conditions: Lamin A splicing dual RFP/GFP fluorescence reporter, ratio
# How it was run: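 S3 HeLa stably expressing lamin A-EGFP splicing minigene and DsRed2, 600 cells/well in Opti-MEM with 2% FBS, treated 48 h at 37C; laser-scanning cytometry gives GFP/RFP total intensity ratio; ancitabine positive control, 0.5% DMSO vehicle.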
# [2] = qHTS Assay for Lipid Storage Modulators (AID 1519); conditions: Drosophila S3 cells, BODIPY lipid droplet/cell ratio, laser cytometry, cells loaded with oleic acid
# How it was run: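 Cells seeded at 5,000 per well were treated with compounds over a concentration series and loaded with oleic acid (400 uM, as added). Lipid droplet fluorescence (488 nm excitation, 500-530 nm channel) was read by laser-scanning cytometry and normalized to 20 uM Triacsin C.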
# [3] = qHTS Assay for Modulators of Human Peripheral Myelin Protein 22 (PMP22) Expression/Activity (AID 1967); conditions: Cell-based PMP22 reporter, dual-color luciferase ratio
# How it was run: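 Mouse MSC80 Schwann cells carrying Pmp22 promoter–green click beetle luciferase plus EF-alpha–red luciferase control, dosed 24 h at 37 °C. Dual-filter luminescence, overlap-corrected; %Activity from green/red ratio normalised to untreated cells, concentration-response curves fitted.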
# [4] = qHTS Validation Assay to Find Inhibitors of Chronic Active B-Cell Receptor Signaling (AID 485345); conditions: ABC-DLBCL cells, chronic BCR signaling reporter
# How it was run: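 TMD8 ABC-DLBCL cells with dox-inducible green luciferase–IκBα fusion and red native luciferase; compounds 46 uM–3 nM, 4 h at 37C with doxycycline in 0.5% FBS IMDM. Green/red ratio normalized to basal and 10 uM MG-132.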
# [5] = Nrf2 qHTS screen for inhibitors: Validation (AID 493153); conditions: A549 ARE-Fluc reporter, 18-24 h; AC50: CellTiter-Fluor fluorescence read, measured here: cytotoxicity CellTiter-Fluor AC50; viability change: measured here: cytotoxicity max response
# How it was run: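 Dose-response validation uses reporter A549 cells with firefly luciferase under an antioxidant response element. Compounds stay on cells 18-24 h at 37°C, and luminescence indicates Nrf2-driven transcription.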
# [6] = qHTS for identification of novel therapeutic agents for treatment of microphthalmiaassociated transcription factor (MiT) renal cell carcinoma (RCC) (AID 1963991); conditions: CellTiter-Glo, 48 h; for z-score: stronger effect = lower value
# How it was run: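 Viability of three TFE3-fusion renal carcinoma lines measured by CellTiter-Glo after 48 h treatment with each of 1912 compounds at 11 concentrations. Responses scaled between DMSO (100%) and empty wells (0%) before curve fitting.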
# [7] = measured here: cell count channel max response
# [8] = measured here: cell number channel AC50
# [9] = measured here: lipid (BODIPY) channel AC50
# [10] = measured here: lipid channel max response
# [11] = measured here: green reporter channel AC50, mouse Pmp22 promoter in mouse Schwann cells
# [12] = measured here: red reporter channel AC50, EF-alpha promoter control reporter in MSC80 mouse Schwann cells
smiles,measurement,setting,value
CCCCCCCCCCCCC/C=C/[C@@H](O)[C@@H](N)CO,AC50,[1]; measured here: GFP channel,"25.1 µM [falling, single point]"
same,AC50,[1]; measured here: RFP channel,"25.1 µM [falling, single point]"
same,max response,[2]; [7],-30.7%
same,AC50,[2]; [8],"0.0112 µM [falling, full curve, poor fit]"
same,AC50,[2]; [9],"0.0112 µM [falling, full curve, poor fit]"
same,max response,[2]; [10],-33.7%
same,AC50,[3]; [11],"26.9 µM [falling, single point]"
CCCCN1CCC(COC(=O)c2cc(Cl)c(N)c3c2OCCO3)CC1,AC50,[1]; measured here: GFP channel,"35.5 µM [falling, single point]"
same,AC50,[1]; measured here: RFP channel,"35.5 µM [falling, single point]"
same,max response,[2]; [7],-38.2%
same,AC50,[2]; [8],"39.8 µM [falling, single point]"
same,AC50,[2]; [9],"39.8 µM [falling, single point]"
same,max response,[2]; [10],-34.4%
same,AC50,[3]; [12],"95.3 µM [falling, single point]"
O=Nc1ccc2oc(=O)ccc2c1,AC50,[1]; measured here: GFP channel,"35.5 µM [falling, single point]"
same,AC50,[1]; measured here: RFP channel,"25.1 µM [falling, partial curve]"
same,max response,[2]; [7],-38.3%
same,AC50,[2]; [8],"8.91 µM [falling, full curve, poor fit]"
same,AC50,[2]; [9],"20 µM [falling, partial curve, poor fit]"
same,max response,[2]; [10],-79.6%
same,AC50,[3]; [11],"67.5 µM [falling, partial curve]"
same,AC50,[3]; [12],"21.3 µM [falling, partial curve]"
Cc1ccc(S(=O)(=O)N[C@@H](Cc2ccccc2)C(=O)CCl)cc1,AC50,[1]; measured here: GFP channel,"3.16 µM [falling, partial curve]"
same,AC50,[1]; measured here: RFP channel,"14.1 µM [falling, partial curve, poor fit]"
same,max response,[2]; [7],-68.9%
same,AC50,[2]; [8],"35.5 µM [falling, partial curve, poor fit]"
same,AC50,[2]; [9],"35.5 µM [falling, partial curve, poor fit]"
same,max response,[2]; [10],-86.4%
same,AC50,[3]; [11],"47.8 µM [falling, partial curve]"
same,AC50,[3]; [12],"30.1 µM [falling, full curve]"
same,AC50,[4]; measured here: CBG/CBR ratio read-out,"20.6 µM [falling, partial curve]"
same,AC50,[4]; measured here: CBR control luciferase (viability counter),"6.51 µM [falling, full curve]"
same,viability change,[5],-12.3%
same,z-score,"[6]; TFE3-RCC UOK109 viability, measured here: UOK109 Z-AUC",0.209
same,z-score,"[6]; TFE3-RCC viability, measured here: UOK124 Z-AUC",0.225
same,AC50,"[6]; TFE3-RCC viability, measured here: UOK124 cell viability","11.8 µM [falling, partial curve]"
same,z-score,"[6]; TFE3-RCC viability, measured here: UOK145 Z-AUC",0.333
same,AC50,"[6]; TFE3-RCC viability, measured here: UOK145 cell viability","26.4 µM [falling, single point]"
